Test results: US20220175699A1, “CO[…]-CLEAVABLE A[…] AND […]” (Ensysce Biosciences, Inc., priority 2019, published 2022)
At least one read-out could not be matched to a standard name with certainty.

What was measured:
[1] = Plasma amphetamine following PO Compound AM-9 0.6 mg/kg to rats without and with trypsin inhibitor nafamostat (Example 8); type: in vivo; conditions: fasted rats, PO Compound AM-9 0.6 mg/kg with 0.1 and 0.25 mg/kg Nafamostat vs alone
Protocol: This example provides a comparison of the immediate release of amphetamine into plasma when Compound AM-9 at a dosage of 0.6 mg/kg is administered PO to fasted rats alone, or with 0.1 and 0.25 mg/kg trypsin inhibitor Nafamostat.
(§1) The formulation was a clear solution. Animals were either fasted overnight through 4 hours postdose or fed ad lib prior to dosing, 4 animals per groups. […] The liquid formulation was administered via oral gavage at […].
FIG. 8A depicts the mean plasma concentration of amphetamine over 8 hours after administration of Compound AM-9 at doses of 0.6 mg/kg alone and in combination with 0.1 mg/kg of Nafamostat and 0.25 mg/kg of Nafamostat. FIG. 8B depicts the mean plasma concentration of amphetamine over the first 2 hours after administration of Compound AM-9 at doses of 0.6 mg/kg alone and in combination with 0.1 mg/kg of Nafamostat and 0.25 mg/kg of Nafamostat.

[2] = Plasma amphetamine following PO Compound AM-9 6 mg/kg to rats without and with trypsin inhibitor nafamostat (Example 9); type: in vivo; conditions: fasted rats, PO Compound AM-9 6 mg/kg with 1, 2.5, 5 and 10 mg/kg Nafamostat vs alone
Protocol: This example provides a comparison of the immediate release of amphetamine into plasma when Compound AM-9 at a dosage of 6 mg/kg is administered PO to fasted rats alone, or with 1, 2.5, 5 and 10 mg/kg trypsin inhibitor Nafamostat.
as §1

For `N=C(N)c1ccc2cc(OC(=O)c3ccc(N=C(N)N)cc3)ccc2c1` [Nafamostat, 6-carbamimidoylnaphthalen-2-yl 4-(diaminomethyleneamino)benzoate], the “effect on overall area under the curve (AUC) of amphetamine release from AM-9” value [1] was “reducing the overall area under the curve (AUC)” and the “effect on overall area under the curve (AUC) of amphetamine release from AM-9” value [2] was “reducing the overall area under the curve (AUC)”.
